Results are given in words; binding and its absence hold for the method and conditions named. Binding seen in cells or lysates may run through a third protein. Some results given as binding are weak or reduced against the parent protein; the word gives no strength.
Columns and labels:
[1] = target: T1, Nerve injury-induced protein 2 (NINJ2) (human (endogenous in SH-SY5Y and HMC3)) (UniProt Q9NZG7); test: co-IP; lysates of Aβ1-42-treated SH-SY5Y cells and LPS-treated HMC3 cells; precleared, incubated overnight at 4 °C with antibodies against SLAMF8 or NINJ2, captured on rProtein A/G Plus MagPoly beads, Western blot; IgG control
T1 sequence: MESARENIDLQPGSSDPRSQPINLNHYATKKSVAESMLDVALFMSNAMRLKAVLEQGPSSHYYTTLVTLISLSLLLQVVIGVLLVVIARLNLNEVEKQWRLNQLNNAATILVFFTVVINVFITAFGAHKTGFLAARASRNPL

Chains of the proteins cited; added tags and fusions are not shown. Residues count along the entry.
UniProt Q9P0V8, residues 23-285: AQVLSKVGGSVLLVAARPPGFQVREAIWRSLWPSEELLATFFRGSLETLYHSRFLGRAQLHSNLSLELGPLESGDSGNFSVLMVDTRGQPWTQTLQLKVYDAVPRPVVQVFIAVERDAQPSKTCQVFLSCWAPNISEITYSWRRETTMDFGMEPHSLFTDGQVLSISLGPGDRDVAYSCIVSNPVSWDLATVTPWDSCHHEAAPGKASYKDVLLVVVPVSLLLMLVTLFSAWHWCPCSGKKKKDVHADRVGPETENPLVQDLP

[2] = target: Signaling Lymphocytic Activation Molecule Family Member 8 (SLAMF8) (human (endogenous in SH-SY5Y and HMC3)) (UniProt Q9P0V8); test: as above

Molecule | binding [1] | binding [2]
Signaling Lymphocytic Activation Molecule Family Member 8 (SLAMF8) (from UniProt Q9P0V8 23-285) | binds | 
Nerve injury-induced protein 2 (NINJ2) (protein, UniProt Q9NZG7 1-142) MESARENIDLQPGSSDPRSQPINLNHYATKKSVAESMLDVALFMSNAMRLKAVLEQGPSSHYYTTLVTLISLSLLLQVVIGVLLVVIARLNLNEVEKQWRLNQLNNAATILVFFTVVINVFITAFGAHKTGFLAARASRNPL |  | binds

Source: publication PMC12092773
